Laboratory results taken from the supplement of paper PMC10849652.
The other results are listed elsewhere or left out.

Amino acid sequences for entries named in this document (tags omitted). A change or cut given only in a name is not applied to a line headed by its entry.
UniProt Q8IZ83: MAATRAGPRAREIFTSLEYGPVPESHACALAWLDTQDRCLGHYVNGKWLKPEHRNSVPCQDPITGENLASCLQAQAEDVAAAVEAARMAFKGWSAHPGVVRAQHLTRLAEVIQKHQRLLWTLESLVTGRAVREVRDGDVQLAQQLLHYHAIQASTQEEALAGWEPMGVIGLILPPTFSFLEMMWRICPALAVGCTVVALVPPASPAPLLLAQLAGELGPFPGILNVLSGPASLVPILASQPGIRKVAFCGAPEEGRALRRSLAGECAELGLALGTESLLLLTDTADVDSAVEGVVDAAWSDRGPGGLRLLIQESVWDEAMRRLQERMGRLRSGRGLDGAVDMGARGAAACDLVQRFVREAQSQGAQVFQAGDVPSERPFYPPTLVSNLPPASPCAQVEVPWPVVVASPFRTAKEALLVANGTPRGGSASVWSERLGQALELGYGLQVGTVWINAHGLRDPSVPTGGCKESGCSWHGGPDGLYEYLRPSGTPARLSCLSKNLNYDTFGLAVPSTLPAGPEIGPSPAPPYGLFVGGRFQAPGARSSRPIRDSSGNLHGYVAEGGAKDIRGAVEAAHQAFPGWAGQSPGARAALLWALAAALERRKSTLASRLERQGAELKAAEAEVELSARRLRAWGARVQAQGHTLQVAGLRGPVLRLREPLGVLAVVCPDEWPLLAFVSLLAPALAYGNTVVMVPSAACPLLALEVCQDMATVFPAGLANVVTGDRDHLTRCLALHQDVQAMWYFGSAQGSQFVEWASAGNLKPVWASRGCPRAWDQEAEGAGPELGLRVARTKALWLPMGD
UniProt P30566: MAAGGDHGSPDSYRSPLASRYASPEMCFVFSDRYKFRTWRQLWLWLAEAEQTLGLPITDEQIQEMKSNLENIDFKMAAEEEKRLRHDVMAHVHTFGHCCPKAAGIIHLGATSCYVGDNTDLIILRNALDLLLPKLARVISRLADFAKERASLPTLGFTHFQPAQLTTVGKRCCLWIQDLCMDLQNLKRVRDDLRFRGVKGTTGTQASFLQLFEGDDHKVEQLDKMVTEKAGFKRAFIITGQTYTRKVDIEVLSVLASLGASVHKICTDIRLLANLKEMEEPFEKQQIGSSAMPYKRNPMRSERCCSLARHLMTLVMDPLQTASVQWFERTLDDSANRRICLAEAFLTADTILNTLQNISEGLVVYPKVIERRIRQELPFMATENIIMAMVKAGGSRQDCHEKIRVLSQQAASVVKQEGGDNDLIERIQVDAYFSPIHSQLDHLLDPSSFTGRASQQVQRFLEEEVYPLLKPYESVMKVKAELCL
UniProt P51649: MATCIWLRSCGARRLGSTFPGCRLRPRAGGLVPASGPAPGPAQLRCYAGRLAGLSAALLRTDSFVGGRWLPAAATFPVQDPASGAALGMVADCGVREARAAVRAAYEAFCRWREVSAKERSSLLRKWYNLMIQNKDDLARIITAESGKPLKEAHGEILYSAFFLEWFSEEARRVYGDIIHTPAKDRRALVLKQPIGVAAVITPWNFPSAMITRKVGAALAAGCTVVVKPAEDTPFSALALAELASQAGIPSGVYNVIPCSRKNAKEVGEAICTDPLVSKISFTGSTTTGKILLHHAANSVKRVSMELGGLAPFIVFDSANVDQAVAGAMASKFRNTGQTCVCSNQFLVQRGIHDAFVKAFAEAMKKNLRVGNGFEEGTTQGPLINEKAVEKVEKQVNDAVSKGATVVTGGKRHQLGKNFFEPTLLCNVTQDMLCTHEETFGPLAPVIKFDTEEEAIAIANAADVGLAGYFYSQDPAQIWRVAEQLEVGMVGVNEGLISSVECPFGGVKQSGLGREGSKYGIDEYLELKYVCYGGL
UniProt P51825: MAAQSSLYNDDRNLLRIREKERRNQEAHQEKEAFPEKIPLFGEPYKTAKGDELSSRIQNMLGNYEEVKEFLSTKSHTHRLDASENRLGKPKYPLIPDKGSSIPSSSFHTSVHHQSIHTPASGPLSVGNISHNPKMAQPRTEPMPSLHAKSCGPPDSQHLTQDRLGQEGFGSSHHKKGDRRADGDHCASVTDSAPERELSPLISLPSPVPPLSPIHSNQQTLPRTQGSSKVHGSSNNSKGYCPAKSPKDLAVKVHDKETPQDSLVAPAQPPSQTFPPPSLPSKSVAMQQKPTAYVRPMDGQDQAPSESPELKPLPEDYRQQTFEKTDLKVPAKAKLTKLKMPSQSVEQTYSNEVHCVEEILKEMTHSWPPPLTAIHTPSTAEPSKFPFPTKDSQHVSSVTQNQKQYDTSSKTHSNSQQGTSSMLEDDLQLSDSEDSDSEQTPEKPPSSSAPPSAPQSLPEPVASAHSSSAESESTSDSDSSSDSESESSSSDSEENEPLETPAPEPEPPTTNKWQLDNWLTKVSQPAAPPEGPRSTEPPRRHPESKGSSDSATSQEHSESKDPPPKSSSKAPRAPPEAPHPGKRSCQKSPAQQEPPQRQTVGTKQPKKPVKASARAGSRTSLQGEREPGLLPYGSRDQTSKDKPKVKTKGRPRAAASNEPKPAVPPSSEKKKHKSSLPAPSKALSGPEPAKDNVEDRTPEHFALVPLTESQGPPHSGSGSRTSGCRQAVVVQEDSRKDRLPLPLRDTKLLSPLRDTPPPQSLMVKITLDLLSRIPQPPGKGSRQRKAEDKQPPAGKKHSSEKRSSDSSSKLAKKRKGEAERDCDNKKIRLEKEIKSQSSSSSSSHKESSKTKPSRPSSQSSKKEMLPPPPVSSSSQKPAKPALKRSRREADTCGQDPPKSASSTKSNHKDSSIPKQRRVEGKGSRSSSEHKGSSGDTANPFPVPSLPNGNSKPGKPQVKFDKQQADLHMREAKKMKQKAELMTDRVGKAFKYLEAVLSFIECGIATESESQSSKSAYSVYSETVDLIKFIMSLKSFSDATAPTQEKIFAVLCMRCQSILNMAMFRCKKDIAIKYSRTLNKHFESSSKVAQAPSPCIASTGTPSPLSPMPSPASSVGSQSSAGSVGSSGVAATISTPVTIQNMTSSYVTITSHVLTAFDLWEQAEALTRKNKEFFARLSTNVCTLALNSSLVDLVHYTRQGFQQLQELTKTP
UniProt Q6NS38: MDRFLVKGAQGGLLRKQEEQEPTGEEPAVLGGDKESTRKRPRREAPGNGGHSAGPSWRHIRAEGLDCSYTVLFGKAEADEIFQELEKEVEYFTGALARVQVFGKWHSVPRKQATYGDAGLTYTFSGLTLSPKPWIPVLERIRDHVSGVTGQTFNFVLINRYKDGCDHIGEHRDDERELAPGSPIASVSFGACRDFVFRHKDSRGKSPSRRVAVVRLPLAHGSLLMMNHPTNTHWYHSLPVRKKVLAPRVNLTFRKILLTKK
UniProt Q9BRR6: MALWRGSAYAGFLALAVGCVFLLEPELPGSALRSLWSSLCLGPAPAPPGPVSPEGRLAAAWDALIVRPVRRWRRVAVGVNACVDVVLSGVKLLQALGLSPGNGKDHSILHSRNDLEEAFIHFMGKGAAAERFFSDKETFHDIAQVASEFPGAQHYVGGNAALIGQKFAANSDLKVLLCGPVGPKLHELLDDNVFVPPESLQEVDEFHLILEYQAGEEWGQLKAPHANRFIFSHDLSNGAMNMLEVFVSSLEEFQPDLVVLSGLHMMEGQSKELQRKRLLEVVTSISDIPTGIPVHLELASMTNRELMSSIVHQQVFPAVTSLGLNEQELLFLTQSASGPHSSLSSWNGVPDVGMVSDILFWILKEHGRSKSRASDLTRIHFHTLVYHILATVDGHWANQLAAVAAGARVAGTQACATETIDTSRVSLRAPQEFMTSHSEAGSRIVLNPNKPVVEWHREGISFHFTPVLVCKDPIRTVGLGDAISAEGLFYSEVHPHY
UniProt Q9H1A4, whole entry, looked up: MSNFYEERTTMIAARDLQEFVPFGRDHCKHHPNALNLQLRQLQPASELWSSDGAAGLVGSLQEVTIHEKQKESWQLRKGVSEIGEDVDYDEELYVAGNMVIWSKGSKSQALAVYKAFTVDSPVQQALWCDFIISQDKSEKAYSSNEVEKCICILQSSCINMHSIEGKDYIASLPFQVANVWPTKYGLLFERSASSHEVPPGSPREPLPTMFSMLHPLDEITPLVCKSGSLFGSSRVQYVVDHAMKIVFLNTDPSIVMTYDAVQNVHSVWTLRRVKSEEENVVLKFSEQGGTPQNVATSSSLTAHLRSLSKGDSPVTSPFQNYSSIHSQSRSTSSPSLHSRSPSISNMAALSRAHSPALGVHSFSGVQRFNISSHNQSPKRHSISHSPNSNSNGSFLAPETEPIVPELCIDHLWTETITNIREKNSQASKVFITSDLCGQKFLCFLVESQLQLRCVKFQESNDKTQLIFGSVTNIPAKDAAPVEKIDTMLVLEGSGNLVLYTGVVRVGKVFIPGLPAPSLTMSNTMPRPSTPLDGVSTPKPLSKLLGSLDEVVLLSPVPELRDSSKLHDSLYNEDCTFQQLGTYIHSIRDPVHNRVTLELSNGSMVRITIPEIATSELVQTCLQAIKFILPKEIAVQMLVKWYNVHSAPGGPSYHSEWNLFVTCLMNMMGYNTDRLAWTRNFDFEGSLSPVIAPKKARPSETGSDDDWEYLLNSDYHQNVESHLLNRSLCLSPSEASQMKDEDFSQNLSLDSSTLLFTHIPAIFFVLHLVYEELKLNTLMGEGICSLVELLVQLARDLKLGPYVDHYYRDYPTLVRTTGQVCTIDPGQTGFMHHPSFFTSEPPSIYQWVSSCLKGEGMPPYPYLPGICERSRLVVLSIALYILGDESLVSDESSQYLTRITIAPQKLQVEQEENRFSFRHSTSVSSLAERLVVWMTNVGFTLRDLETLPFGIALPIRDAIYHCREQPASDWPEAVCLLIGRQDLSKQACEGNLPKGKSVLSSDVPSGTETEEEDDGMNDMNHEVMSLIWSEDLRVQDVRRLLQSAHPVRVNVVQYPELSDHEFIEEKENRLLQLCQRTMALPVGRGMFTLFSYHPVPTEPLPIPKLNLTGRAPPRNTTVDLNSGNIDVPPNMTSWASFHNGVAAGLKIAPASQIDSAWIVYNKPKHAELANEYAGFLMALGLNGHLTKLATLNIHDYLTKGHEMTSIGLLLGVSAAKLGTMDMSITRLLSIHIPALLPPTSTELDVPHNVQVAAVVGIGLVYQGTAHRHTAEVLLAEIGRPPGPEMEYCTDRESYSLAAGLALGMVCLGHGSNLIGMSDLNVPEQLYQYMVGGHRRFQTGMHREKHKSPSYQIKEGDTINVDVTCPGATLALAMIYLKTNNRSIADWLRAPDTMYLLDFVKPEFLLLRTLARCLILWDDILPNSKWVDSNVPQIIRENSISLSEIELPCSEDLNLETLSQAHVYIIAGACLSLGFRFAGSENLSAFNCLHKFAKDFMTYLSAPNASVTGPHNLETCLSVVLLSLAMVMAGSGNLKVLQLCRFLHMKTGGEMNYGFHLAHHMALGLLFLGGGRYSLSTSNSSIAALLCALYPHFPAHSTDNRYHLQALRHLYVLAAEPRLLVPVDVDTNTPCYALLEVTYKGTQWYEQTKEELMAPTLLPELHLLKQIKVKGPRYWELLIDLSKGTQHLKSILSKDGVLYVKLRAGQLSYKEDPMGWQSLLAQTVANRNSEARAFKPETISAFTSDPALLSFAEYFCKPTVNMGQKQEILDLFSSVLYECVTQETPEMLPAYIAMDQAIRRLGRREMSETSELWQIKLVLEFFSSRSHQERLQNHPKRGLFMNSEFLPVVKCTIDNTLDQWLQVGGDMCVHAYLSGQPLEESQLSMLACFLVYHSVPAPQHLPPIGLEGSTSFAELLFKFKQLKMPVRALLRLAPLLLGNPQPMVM
UniProt Q9Y4W6: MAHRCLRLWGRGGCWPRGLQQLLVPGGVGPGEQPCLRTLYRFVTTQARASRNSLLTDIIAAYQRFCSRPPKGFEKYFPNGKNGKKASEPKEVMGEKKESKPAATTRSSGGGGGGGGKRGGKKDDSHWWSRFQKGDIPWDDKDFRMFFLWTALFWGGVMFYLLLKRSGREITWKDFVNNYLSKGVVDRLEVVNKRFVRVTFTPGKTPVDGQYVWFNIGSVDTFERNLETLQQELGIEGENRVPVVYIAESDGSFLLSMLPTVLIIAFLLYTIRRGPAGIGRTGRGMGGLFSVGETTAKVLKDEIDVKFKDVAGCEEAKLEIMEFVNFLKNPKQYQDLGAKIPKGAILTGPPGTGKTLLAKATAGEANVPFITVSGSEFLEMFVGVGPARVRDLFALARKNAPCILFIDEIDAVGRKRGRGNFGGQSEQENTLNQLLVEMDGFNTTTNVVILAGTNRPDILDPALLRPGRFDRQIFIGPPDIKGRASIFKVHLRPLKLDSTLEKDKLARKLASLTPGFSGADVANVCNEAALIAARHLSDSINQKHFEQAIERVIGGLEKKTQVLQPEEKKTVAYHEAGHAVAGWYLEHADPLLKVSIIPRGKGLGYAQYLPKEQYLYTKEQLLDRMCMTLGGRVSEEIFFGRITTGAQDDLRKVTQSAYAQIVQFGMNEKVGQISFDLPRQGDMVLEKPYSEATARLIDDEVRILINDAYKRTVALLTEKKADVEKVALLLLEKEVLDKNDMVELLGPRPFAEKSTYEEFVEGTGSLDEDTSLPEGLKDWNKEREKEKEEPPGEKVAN

Columns and labels:
Assay in all cases: log2 fold change, soluble protein after heating vs DMSO (PISA); higher = thermal stabilisation; K562 cells, 10 uM, 30 min; active = over 0.2 and 3.5 SD of the protein, either way, in both replicates (recomputed)
[1] = compound: CC[C@@H]1C(=O)N(C)c2cnc(Nc3ccc(C(=O)NC4CCN(C)CC4)cc3OC)nc2N1C1CCCC1
Summary of the method: (§1)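 K562 cells at 2×10^6 cells/mL were given 10 μM compound for 30 min. Aliquots then went through 3 min of heating across 48°C-58°C, were pooled, and were extracted in PBS with 0.5% NP-40 at 4°C, and the supernatant after 21,000xg for 90 min was quantified by TMTpro 16plex LC-MS/MS with channel sums equalised. Thermal stability relative to control samples, from duplicates, is given as log2 fold change.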

volasertib = compound: CC[C@@H]1C(=O)N(C)c2cnc(Nc3ccc(C(=O)N[C@H]4CC[C@H](N5CCN(CC6CC6)CC5)CC4)cc3OC)nc2N1C(C)C [volasertib]
Summary of the method: as §1

[2] = compound: CC[C@H](C)N1C=C(C2=C(C=C(C=C21)C3=CN=C(C=C3)N4CCNCC4)C(=O)NCC5=C(C=C(NC5=O)C)C)C
Summary of the method: as §1

epoxomicin = compound: CC[C@H](C)[C@@H](C(=O)N[C@@H]([C@@H](C)O)C(=O)N[C@@H](CC(C)C)C(=O)[C@]1(CO1)C)NC(=O)[C@H]([C@@H](C)CC)N(C)C(=O)C [epoxomicin]
Summary of the method: as §1

[3] = compound: CCn1c(C(=O)N(C2CC2)C2CC2)cc2c3c(ncn3C)c(Nc3cc(C)n(C)n3)nc21
Summary of the method: as §1

[4] = compound: CCn1cc(-c2ccnc3[nH]c(-c4cccc(CN(C)C)c4)cc23)c(-c2ccc(NC(=O)N(C)C)cc2)n1
Summary of the method: as §1

[5] = compound: CN(C)CC(=O)Nc1ccc2[nH]c(=O)c3ccccc3c2c1
Summary of the method: as §1

rosiglitazone = compound: CN(CCOC1=CC=C(C=C1)C[C@H]2C(=O)NC(=O)S2)C3=CC=CC=N3 (racemic) [rosiglitazone]
Summary of the method: as §1

[6] = compound: CN1C2=C(C3=C1C(=O)N(N=C3)CC4=CC(=CC=C4)N)SC(=C2)S(=O)C
Summary of the method: as §1

[7] = compound: CN1CCC(CNc2ccc3ncc(-c4cccc(OC(F)(F)F)c4)n3n2)CC1
Summary of the method: as §1

saracatinib = compound: CN1CCN(CCOc2cc(OC3CCOCC3)c3c(Nc4c(Cl)ccc5c4OCO5)ncnc3c2)CC1 [saracatinib]
Summary of the method: as §1

sotrastaurin = compound: CN1CCN(c2nc(C3=C(c4c[nH]c5ccccc45)C(=O)NC3=O)c3ccccc3n2)CC1 [sotrastaurin]
Summary of the method: as §1

alvocidib = compound: CN1CC[C@H](c2c(O)cc(O)c3c(=O)cc(-c4ccccc4Cl)oc23)[C@H](O)C1 [alvocidib]
Summary of the method: as §1

Tubastatin A = compound: CN1CCc2c(c3ccccc3n2Cc2ccc(C(=O)NO)cc2)C1 [Tubastatin A]
Summary of the method: as §1

[8] = compound: CNC(=O)C1=CC=CC=C1NC2=NC(=NC=C2Cl)NC3=C(C=C(C=C3)N4CCOCC4)OC
Summary of the method: as §1

defactinib = compound: CNC(=O)c1ccc(Nc2ncc(C(F)(F)F)c(NCc3nccnc3N(C)S(C)(=O)=O)n2)cc1 [defactinib]
Summary of the method: as §1

rucaparib = compound: CNCc1ccc(-c2[nH]c3cc(F)cc4c3c2CCNC4=O)cc1 [rucaparib]
Summary of the method: as §1

[9] = compound: CNc1nc(-c2ccc3c(N)n[nH]c3c2)cc(N2C[C@@H](C(=O)NC3CCCCC3)CC[C@H]2C)n1
Summary of the method: as §1

encorafenib = compound: COC(=O)N[C@@H](C)CNc1nccc(-c2cn(C(C)C)nc2-c2cc(Cl)cc(NS(C)(=O)=O)c2F)n1 [encorafenib]
Summary of the method: as §1

[10] = compound: COC(=O)[C@H](CCSC)NC(=O)C1=C(C=C(C=C1)NC[C@H](CS)N)C2=CC=CC=C2
Summary of the method: as §1

Measured: log2 fold change

ALDH1L2 (UniProt Q3SY69)
inactive: [1] 0.039 | volasertib -0.001 | [2] 0.028 | epoxomicin -0.003 | [3] -0.011 | [4] -0.025 | [5] -0.074 | rosiglitazone -0.055 | [6] -0.03 | [7] -0.103 | saracatinib -0.011 | sotrastaurin 0.049 | alvocidib -0.181 | Tubastatin A -0.132 | [8] 0.06 | defactinib -0.164 | rucaparib 0.171 | [9] -0.035 | encorafenib 0.071 | [10] 0.068

ALDH16A1 (UniProt Q8IZ83)
inactive: [1] 0.015 | volasertib -0.033 | [2] -0.034 | epoxomicin -0.02 | [3] -0.006 | [4] -0.03 | [5] -0.001 | rosiglitazone 0.005 | [6] -0.033 | [7] -0.058 | saracatinib 0 | sotrastaurin 0.026 | alvocidib -0.026 | Tubastatin A 0.026 | [8] -0.039 | defactinib -0.03 | rucaparib -0.068 | [9] -0.026 | encorafenib -0.051 | [10] -0.004

ADSL (UniProt P30566)
inactive: [1] 0.01 | volasertib 0.049 | [2] -0.044 | epoxomicin 0.03 | [3] 0.006 | [4] -0.015 | [5] -0.014 | rosiglitazone -0.018 | [6] -0.019 | [7] 0 | saracatinib 0.04 | sotrastaurin 0.05 | alvocidib -0.005 | Tubastatin A -0.028 | [8] -0.052 | defactinib -0.015 | rucaparib -0.033 | [9] -0.025 | encorafenib -0.019 | [10] 0.033

AGTRAP (UniProt Q6RW13)
inactive: [1] 0.128 | volasertib 0.048 | [2] -0.043 | epoxomicin -0.084 | [3] -0.07 | [4] 0.07 | [5] 0.166 | rosiglitazone 0.012 | [6] -0.117 | [7] 0.108 | saracatinib 0.046 | sotrastaurin 0.027 | alvocidib -0.056 | Tubastatin A -0.064 | [8] 0.01 | defactinib -0.075 | rucaparib 0 | [9] -0.025 | encorafenib 0.031 | [10] 0.099

AIFM1 (UniProt O95831)
inactive: [1] 0.01 | volasertib 0.02 | [2] -0.018 | epoxomicin -0.011 | [3] 0.004 | [4] 0.012 | [5] 0.004 | rosiglitazone -0.001 | [6] -0.061 | [7] 0.072 | saracatinib 0.008 | sotrastaurin 0.017 | alvocidib -0.017 | Tubastatin A -0.042 | [8] 0.011 | defactinib -0.014 | rucaparib -0.048 | [9] -0.04 | encorafenib -0.018 | [10] -0.003

ALDH5A1 isoform 2 (UniProt P51649)
inactive: [1] 0.025 | volasertib 0.037 | [2] -0.011 | epoxomicin 0.028 | [3] 0.002 | [4] 0.013 | [5] 0 | rosiglitazone 0.014 | [6] -0.055 | [7] 0.046 | saracatinib 0.026 | sotrastaurin 0.022 | alvocidib -0.08 | Tubastatin A -0.005 | [8] 0.018 | defactinib -0.015 | rucaparib -0.007 | [9] -0.036 | encorafenib -0.004 | [10] -0.001

AFF1 isoform 2 (UniProt P51825)
inactive: [1] 0.12 | volasertib 0.021 | [2] -0.212 | epoxomicin -0.014 | [3] 0.01 | [4] 0.123 | [5] 0.104 | rosiglitazone 0.022 | [6] 0.057 | [7] -0.146 | saracatinib -0.112 | [8] 0.025 | defactinib 0.061 | rucaparib -0.123 | [9] 0.055 | encorafenib 0.23 | [10] -0.211

Looked up one by one from the list above, two records:
ALDH5A1 isoform 2 (UniProt P51649)
inactive: [1] 0.025 | volasertib 0.037 | [2] -0.011 | epoxomicin 0.028 | [3] 0.002 | [4] 0.013 | [5] 0 | rosiglitazone 0.014 | [6] -0.055 | [7] 0.046 | saracatinib 0.026 | sotrastaurin 0.022 | alvocidib -0.08 | Tubastatin A -0.005 | [8] 0.018 | defactinib -0.015 | rucaparib -0.007 | [9] -0.036 | encorafenib -0.004 | [10] -0.001

AFF1 isoform 2 (UniProt P51825)
inactive: [1] 0.12 | volasertib 0.021 | [2] -0.212 | epoxomicin -0.014 | [3] 0.01 | [4] 0.123 | [5] 0.104 | rosiglitazone 0.022 | [6] 0.057 | [7] -0.146 | saracatinib -0.112 | [8] 0.025 | defactinib 0.061 | rucaparib -0.123 | [9] 0.055 | encorafenib 0.23 | [10] -0.211

Further records:

ALDOC (UniProt P09972)
inactive: [1] -0.017 | volasertib 0.063 | [2] -0.058 | epoxomicin 0.013 | [3] 0.001 | [4] -0.007 | [5] 0 | rosiglitazone -0.005 | [6] -0.068 | [7] -0.056 | saracatinib 0.031 | sotrastaurin 0.002 | alvocidib -0.053 | Tubastatin A -0.007 | [8] -0.051 | defactinib 0.003 | rucaparib -0.017 | [9] -0.017 | encorafenib -0.012 | [10] 0

ALKBH2 (UniProt Q6NS38)
inactive: [1] -0.002 | volasertib -0.004 | [2] -0.024 | epoxomicin -0.042 | [4] -0.034 | [5] -0.044 | rosiglitazone 0.121 | [6] 0.117 | [7] 0.105 | saracatinib 0.046 | sotrastaurin 0.149 | alvocidib 0.062 | Tubastatin A 0.04 | defactinib 0.055 | rucaparib 0.027 | [9] -0.056 | encorafenib 0.132 | [10] -0.001

ALDOC (UniProt J3QKP5)
inactive: [1] 0.066 | volasertib 0.237 | [2] -0.088 | epoxomicin -0.106 | [4] -0.098 | [5] -0.333 | rosiglitazone -0.192 | [6] 0.198 | [7] -0.548 | saracatinib -0.314 | sotrastaurin 0.228 | alvocidib 0.16 | Tubastatin A 0.003 | defactinib 0.293 | rucaparib 0.391 | [9] -0.262 | encorafenib -0.353 | [10] 0.17

AGK (UniProt Q53H12)
inactive: [1] -0.075 | volasertib -0.041 | [2] 0.008 | epoxomicin 0.027 | [3] 0.007 | [4] 0.012 | [5] 0.007 | rosiglitazone -0.036 | [6] -0.012 | [7] -0.096 | saracatinib 0.058 | sotrastaurin 0.046 | alvocidib -0.002 | Tubastatin A -0.049 | [8] -0.001 | defactinib -0.038 | rucaparib 0.027 | [9] -0.037 | encorafenib -0.023 | [10] 0.024

ADPGK (UniProt Q9BRR6)
inactive: [1] 0.075 | volasertib -0.056 | [2] -0.028 | epoxomicin -0.103 | [3] 0.019 | [4] 0.019 | [5] -0.02 | rosiglitazone 0 | [6] -0.006 | [7] 0.045 | saracatinib 0.044 | sotrastaurin 0.009 | alvocidib 0.001 | Tubastatin A -0.035 | [8] -0.031 | defactinib -0.033 | rucaparib 0 | [9] -0.035 | encorafenib -0.016 | [10] -0.002

ANAPC1 (UniProt Q9H1A4)
inactive: [1] -0.031 | volasertib -0.114 | [2] 0.025 | epoxomicin 0.021 | [3] -0.026 | [4] 0.058 | [5] -0.013 | rosiglitazone -0.017 | [6] 0.016 | [7] 0.023 | saracatinib -0.011 | sotrastaurin -0.025 | alvocidib -0.022 | Tubastatin A 0.045 | [8] 0.021 | defactinib 0.017 | rucaparib 0.027 | [9] -0.033 | encorafenib 0.037 | [10] -0.005

ALG9 isoform 3 (UniProt Q9H6U8)
inactive: [1] -0.019 | volasertib -0.078 | [2] 0.002 | epoxomicin -0.014 | [3] -0.034 | [4] -0.024 | [5] -0.025 | rosiglitazone 0.059 | [6] 0.009 | [7] -0.022 | saracatinib -0.007 | sotrastaurin 0.021 | alvocidib -0.028 | Tubastatin A 0.041 | [8] 0.036 | defactinib 0.023 | rucaparib 0.032 | [9] 0.014 | encorafenib -0.127 | [10] -0.005

ALG2 (UniProt Q9H553)
inactive: [1] 0.025 | volasertib -0.152 | [2] 0.023 | epoxomicin -0.003 | [3] -0.011 | [4] 0.001 | [5] 0.056 | rosiglitazone 0.032 | [6] -0.013 | [7] -0.081 | saracatinib -0.046 | sotrastaurin 0.005 | alvocidib -0.072 | Tubastatin A -0.004 | [8] 0.044 | defactinib 0.009 | rucaparib 0.083 | [9] -0.014 | encorafenib 0.041 | [10] -0.008

AFG3L2 (UniProt Q9Y4W6)
inactive: [1] -0.053 | volasertib -0.055 | [2] 0.018 | epoxomicin 0.019 | [3] 0.016 | [4] 0.001 | [5] -0.004 | rosiglitazone 0.024 | [6] -0.023 | [7] -0.157 | saracatinib 0.014 | sotrastaurin 0.033 | alvocidib -0.019 | Tubastatin A -0.084 | [8] -0.002 | defactinib -0.034 | rucaparib -0.03 | [9] -0.02 | encorafenib 0.023 | [10] -0.004
